Assay [1] concerns the target T1, CLOCK (mouse (endogenous in liver)) (UniProt O08785).
T1 sequence: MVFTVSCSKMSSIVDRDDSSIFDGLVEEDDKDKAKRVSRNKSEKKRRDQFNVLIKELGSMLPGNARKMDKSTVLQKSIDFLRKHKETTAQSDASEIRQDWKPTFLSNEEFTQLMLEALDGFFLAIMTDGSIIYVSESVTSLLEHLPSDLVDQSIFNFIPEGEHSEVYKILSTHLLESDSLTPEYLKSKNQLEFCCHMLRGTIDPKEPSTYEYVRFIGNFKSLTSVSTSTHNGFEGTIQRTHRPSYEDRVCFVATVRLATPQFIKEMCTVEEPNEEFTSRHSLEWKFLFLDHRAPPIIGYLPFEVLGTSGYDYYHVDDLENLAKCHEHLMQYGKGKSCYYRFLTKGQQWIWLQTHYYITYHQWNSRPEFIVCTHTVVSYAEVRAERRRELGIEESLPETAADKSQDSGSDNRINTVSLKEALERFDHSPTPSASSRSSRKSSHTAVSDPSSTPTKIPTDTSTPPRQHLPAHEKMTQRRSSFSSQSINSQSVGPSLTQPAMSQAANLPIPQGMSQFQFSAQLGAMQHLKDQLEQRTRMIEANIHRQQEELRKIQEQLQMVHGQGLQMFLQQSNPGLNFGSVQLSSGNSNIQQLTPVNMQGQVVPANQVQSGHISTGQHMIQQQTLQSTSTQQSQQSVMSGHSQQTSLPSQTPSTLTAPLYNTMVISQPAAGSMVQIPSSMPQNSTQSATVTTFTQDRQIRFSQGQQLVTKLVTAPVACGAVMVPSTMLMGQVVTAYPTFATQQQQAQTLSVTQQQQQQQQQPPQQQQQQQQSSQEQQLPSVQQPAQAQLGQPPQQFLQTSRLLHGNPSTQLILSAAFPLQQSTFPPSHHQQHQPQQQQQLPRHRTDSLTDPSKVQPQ
Put plainly: native gel or EMSA; supershift EMSA: mouse liver nuclear extract (ZT2) with radiolabelled E1-E2 oligonucleotide probes; anti-BMAL1 or anti-CLOCK antibody added before the probe.

Protein sequences, listed by entry. Tags and fused reporters are not part of them.
UniProt Q9WTL8: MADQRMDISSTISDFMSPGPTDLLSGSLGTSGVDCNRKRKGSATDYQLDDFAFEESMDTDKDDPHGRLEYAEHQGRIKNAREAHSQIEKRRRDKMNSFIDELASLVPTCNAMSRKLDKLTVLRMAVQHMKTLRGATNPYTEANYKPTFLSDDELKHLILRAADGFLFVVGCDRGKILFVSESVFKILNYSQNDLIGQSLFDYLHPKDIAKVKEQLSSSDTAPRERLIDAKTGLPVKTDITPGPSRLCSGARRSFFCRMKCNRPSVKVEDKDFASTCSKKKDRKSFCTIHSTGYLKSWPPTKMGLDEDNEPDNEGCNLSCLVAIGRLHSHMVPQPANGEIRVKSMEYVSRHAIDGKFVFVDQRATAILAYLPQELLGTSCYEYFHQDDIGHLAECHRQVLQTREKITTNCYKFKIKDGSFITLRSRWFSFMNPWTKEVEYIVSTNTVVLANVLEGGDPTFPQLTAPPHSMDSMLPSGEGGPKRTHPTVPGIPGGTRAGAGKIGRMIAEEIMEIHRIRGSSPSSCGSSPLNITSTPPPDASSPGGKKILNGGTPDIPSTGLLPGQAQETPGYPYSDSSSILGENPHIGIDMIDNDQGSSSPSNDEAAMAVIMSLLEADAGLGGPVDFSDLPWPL

For assay [2], the target named is T1, CLOCK (mouse (endogenous in liver)). Put plainly: cross-linking + native gel or EMSA; two-dimensional EMSA: ZT2 liver nuclear extract with sp7 probe made with azido-dUTP, protein-DNA cross-linking, first dimension 4% acrylamide EMSA gel, second dimension resolves the DNA-bound proteins by mass. (In general: A gel shift assay detects complexes by their altered migration in electrophoresis.)

These are yes or no findings as the source states them, for the method shown. For some assays here: Binding seen in cells or lysates may run through a third protein. Some entries that bind do so weakly or less than the wild type.

Take BMAL1 (from UniProt Q9WTL8 1-632): the binding result in assay [1] and in assay [2] was “binds” throughout.

Source of the values: publication PMC3043000.
